PubChem BioAssay AID1117269, University of Michigan | 2014
The whole screen tested 714 reagents; shown is an unselected part. In the full data, 49 (6.9%) are marked active. 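Active means a hit in at least one line; per-line hit columns show which; some siRNA pools appear more than once.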 Not given: the amount of reagent.

Test: 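Kinome-wide knockdown screen for regulators of TGF-beta reporter output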 (primary screen)
System: human A549 lung cancer and 1833 breast cancer (MDA-MB-231-derived) cell lines carrying a stable BTR luciferase reporter
Knock-down reagent: siRNA pool against human genes
Duration: 72 h after transfection, then 1 h TGF-beta before the read
Conditions: TGF-beta 10 ng/mL added one hour before luciferin and read-out
Measurement: 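Live-cell BTR luciferase signal at 72 h after transfection and 1 h of TGF-beta at 10 ng/mL, fold versus scrambled siRNA, triplicate mean for each line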
Reading the numbers: fold over scrambled siRNA, A549 and fold over scrambled siRNA, 1833: higher = more reporter light, weaker TGF-beta receptor signalling
Active means: 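Hit in either line counts as active; per-line hits lie above an upper limit from quartiles of averaged log fold values, in plate and screen-wide analyses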
Meaning of the calls: active = hit in at least one line; inactive = hit in neither line

For ANKK1 [SID56478922] the deposit lists fold over scrambled siRNA, A549 = 1.69; fold over scrambled siRNA, 1833 = 1.53; hit in A549 = not a hit in A549; hit in 1833 = not a hit in 1833; inactive.
After knock-down of BRD4 [SID152154839], the screen gave fold over scrambled siRNA, A549 = 3.72; fold over scrambled siRNA, 1833 = 28.3; hit in A549 = not a hit in A549; hit in 1833 = hit in 1833.
After knock-down of ILK [SID152151227], the record shows fold over scrambled siRNA, A549 = 1.58; fold over scrambled siRNA, 1833 = 5.03; hit in A549 = not a hit in A549; hit in 1833 = not a hit in 1833; inactive.
Knock-down of ILK [SID152153406] came out at: fold over scrambled siRNA, A549 = 1.24; fold over scrambled siRNA, 1833 = 3; hit in A549 = not a hit in A549; hit in 1833 = not a hit in 1833; inactive.
With knock-down of OXSR1 [SID152151868], the screen gave fold over scrambled siRNA, A549 = 3.83; fold over scrambled siRNA, 1833 = 5.3; hit in A549 = not a hit in A549; hit in 1833 = not a hit in 1833; inactive.
With knock-down of SIK2 [SID135620885] the results were fold over scrambled siRNA, A549 = 2.8; fold over scrambled siRNA, 1833 = 3.19; hit in A549 = not a hit in A549; hit in 1833 = not a hit in 1833; inactive.

Already shown: entries from further up.
ILK [SID152151227]: fold over scrambled siRNA, A549 = 1.58; fold over scrambled siRNA, 1833 = 5.03; hit in A549 = not a hit in A549; hit in 1833 = not a hit in 1833; activity call = inactive
ILK [SID152153406]: fold over scrambled siRNA, A549 = 1.24; fold over scrambled siRNA, 1833 = 3; hit in A549 = not a hit in A549; hit in 1833 = not a hit in 1833; activity call = inactive

Further records follow:
Knock-down of AXL [SID152148834] gave: fold over scrambled siRNA, A549 = 2.08; fold over scrambled siRNA, 1833 = 1.67; hit in A549 = not a hit in A549; hit in 1833 = not a hit in 1833; inactive.
Depletion of MAPKAPK2 [SID56478668] resulted in: fold over scrambled siRNA, A549 = 0.788; fold over scrambled siRNA, 1833 = 1.36; hit in A549 = not a hit in A549; hit in 1833 = not a hit in 1833; inactive.
For NUCKS1 [SID152150801], the entry reads fold over scrambled siRNA, A549 = 2.08; fold over scrambled siRNA, 1833 = 7.54; hit in A549 = not a hit in A549; hit in 1833 = not a hit in 1833; inactive.
PNKP [SID56479144] gave fold over scrambled siRNA, A549 = 2.58; fold over scrambled siRNA, 1833 = 5.29; hit in A549 = not a hit in A549; hit in 1833 = not a hit in 1833; inactive.
MAPK10 [SID56478791] gave fold over scrambled siRNA, A549 = 1.29; fold over scrambled siRNA, 1833 = 7.33; hit in A549 = not a hit in A549; hit in 1833 = not a hit in 1833; inactive.
HUNK [SID56478785] scored fold over scrambled siRNA, A549 = 0.824; fold over scrambled siRNA, 1833 = 1.26; hit in A549 = not a hit in A549; hit in 1833 = not a hit in 1833; inactive.
